This assay addresses SiiB-3×Flag (Salmonella enterica serovar Typhimurium). As to the kind of experiment: co-IP.

These are yes or no findings as the source states them, for the method shown. In cells and extracts the contact can be indirect. Binding can be weak; no strength is given.

CheM-HA (from UniProt P02941 1-553): the binding entry is reported as “binds”.

(Values after doi:10.1101/2021.05.14.443827.)
